# The supplement of paper PMC10849652
# Protein sequences, listed by entry. Tags and fused reporters are not part of them. Lines headed by an entry give the natural chain unless they say otherwise; changes in a name come on top.
# UniProt Q9BYI3: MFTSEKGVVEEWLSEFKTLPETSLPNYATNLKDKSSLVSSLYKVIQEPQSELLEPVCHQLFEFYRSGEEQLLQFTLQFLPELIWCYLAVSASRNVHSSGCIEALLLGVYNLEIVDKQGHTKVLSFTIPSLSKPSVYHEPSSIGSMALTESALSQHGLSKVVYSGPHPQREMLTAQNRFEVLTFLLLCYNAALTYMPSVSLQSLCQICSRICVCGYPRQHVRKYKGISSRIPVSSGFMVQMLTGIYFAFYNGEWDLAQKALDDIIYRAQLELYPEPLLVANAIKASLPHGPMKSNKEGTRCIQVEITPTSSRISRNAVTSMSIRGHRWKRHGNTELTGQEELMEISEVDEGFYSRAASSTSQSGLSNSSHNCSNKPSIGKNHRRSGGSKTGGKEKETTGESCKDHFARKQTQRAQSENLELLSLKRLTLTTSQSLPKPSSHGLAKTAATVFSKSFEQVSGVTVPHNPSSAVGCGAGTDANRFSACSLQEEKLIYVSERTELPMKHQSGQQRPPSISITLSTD
# UniProt O43909: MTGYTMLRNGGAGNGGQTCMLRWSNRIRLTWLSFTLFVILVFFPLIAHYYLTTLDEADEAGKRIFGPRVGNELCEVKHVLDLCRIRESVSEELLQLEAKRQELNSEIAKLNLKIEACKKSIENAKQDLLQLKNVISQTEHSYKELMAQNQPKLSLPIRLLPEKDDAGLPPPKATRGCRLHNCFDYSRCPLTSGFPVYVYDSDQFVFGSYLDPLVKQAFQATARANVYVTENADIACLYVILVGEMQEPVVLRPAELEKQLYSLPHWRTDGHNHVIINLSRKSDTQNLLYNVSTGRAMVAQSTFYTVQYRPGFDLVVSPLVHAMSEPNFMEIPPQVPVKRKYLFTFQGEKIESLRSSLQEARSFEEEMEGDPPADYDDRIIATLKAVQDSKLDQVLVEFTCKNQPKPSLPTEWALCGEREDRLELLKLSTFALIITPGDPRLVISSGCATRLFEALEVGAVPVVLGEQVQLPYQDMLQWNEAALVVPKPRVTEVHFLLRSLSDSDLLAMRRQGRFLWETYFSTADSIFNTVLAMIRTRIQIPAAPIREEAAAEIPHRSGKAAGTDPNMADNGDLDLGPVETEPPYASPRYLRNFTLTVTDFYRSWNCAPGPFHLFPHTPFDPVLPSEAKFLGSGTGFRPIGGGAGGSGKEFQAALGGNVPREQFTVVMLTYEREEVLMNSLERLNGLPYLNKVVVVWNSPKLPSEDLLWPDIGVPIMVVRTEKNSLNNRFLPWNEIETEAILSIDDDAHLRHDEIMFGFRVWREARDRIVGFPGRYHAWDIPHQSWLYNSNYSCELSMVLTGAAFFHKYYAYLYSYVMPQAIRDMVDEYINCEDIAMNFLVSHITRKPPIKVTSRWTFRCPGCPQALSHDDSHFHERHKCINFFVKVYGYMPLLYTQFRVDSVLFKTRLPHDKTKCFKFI
# UniProt O75063: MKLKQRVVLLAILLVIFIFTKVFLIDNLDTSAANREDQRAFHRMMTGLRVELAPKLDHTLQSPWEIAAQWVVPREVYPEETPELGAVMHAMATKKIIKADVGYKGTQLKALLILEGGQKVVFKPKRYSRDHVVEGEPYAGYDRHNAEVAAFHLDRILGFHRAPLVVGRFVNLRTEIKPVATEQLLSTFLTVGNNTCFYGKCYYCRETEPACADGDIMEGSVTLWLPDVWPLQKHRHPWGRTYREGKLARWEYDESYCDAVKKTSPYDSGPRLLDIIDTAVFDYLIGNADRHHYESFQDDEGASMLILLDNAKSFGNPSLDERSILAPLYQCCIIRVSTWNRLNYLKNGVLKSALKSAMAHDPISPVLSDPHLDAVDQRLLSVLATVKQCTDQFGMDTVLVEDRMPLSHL
# UniProt Q9GZU8: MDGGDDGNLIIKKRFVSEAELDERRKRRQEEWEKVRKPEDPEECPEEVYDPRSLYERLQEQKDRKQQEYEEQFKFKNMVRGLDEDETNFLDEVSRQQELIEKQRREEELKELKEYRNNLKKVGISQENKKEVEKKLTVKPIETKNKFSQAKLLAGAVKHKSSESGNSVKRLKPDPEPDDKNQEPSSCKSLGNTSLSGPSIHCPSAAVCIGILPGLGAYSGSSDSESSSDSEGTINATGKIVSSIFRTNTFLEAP
# UniProt Q96RI0: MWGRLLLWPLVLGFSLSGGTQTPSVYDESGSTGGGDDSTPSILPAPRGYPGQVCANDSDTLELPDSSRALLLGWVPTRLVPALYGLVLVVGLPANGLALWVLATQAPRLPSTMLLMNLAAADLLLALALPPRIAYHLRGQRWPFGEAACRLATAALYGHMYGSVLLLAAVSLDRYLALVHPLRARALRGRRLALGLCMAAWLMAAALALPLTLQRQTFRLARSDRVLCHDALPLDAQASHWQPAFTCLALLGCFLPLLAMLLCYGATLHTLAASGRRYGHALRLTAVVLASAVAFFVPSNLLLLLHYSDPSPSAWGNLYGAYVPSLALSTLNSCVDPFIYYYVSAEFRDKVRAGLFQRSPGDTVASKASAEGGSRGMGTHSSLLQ
# UniProt Q15910, whole entry, looked up: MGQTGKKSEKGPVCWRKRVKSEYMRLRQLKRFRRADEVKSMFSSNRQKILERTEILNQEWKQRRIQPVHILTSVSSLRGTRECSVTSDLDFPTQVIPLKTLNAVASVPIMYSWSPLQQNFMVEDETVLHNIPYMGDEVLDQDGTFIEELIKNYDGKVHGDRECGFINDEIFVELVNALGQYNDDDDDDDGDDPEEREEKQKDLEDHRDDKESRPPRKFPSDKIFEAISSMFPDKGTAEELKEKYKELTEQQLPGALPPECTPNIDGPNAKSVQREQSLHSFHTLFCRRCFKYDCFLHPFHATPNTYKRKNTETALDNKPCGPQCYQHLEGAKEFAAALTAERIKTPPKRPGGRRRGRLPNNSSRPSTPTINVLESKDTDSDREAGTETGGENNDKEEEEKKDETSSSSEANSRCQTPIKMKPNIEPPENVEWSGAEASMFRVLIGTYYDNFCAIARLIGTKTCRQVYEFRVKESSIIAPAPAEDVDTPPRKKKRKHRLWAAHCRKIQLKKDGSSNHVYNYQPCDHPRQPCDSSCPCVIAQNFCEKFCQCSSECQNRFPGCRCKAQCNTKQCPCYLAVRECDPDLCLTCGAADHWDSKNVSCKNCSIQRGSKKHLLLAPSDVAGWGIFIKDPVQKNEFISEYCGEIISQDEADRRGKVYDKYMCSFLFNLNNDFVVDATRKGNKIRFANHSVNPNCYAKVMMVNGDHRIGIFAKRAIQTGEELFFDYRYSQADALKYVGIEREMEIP
# UniProt Q96A65: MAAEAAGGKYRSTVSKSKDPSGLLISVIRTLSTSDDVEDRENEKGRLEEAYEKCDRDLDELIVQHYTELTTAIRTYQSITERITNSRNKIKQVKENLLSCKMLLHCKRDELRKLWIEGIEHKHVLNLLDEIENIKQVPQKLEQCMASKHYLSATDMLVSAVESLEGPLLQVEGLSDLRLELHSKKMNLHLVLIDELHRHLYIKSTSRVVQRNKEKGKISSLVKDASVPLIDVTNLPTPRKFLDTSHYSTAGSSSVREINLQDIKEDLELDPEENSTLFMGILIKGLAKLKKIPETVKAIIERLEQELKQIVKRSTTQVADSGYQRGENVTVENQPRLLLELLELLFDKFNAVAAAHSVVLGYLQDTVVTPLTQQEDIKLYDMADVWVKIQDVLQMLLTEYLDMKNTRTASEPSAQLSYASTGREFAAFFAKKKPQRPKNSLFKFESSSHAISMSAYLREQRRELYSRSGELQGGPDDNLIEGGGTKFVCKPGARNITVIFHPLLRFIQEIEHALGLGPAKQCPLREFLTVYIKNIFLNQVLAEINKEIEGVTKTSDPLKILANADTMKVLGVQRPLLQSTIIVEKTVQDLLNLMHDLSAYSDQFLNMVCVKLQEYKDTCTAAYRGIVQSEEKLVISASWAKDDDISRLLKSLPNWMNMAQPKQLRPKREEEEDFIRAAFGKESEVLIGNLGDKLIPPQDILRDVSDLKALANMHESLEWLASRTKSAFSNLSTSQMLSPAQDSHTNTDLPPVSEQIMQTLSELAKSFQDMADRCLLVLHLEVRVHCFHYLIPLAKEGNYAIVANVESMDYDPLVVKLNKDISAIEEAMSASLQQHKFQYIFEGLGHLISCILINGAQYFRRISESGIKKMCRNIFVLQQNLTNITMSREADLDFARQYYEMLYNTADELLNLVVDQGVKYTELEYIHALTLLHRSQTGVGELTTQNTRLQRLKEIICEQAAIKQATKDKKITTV
# UniProt Q9NQT5, whole entry, looked up: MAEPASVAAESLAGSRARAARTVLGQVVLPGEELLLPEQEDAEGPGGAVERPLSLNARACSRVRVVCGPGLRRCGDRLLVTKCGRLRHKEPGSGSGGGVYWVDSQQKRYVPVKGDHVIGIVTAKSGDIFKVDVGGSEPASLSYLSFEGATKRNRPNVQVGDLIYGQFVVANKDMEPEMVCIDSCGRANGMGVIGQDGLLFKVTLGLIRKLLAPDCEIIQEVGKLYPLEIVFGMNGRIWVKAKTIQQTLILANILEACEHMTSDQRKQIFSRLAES
# UniProt Q9NVH0: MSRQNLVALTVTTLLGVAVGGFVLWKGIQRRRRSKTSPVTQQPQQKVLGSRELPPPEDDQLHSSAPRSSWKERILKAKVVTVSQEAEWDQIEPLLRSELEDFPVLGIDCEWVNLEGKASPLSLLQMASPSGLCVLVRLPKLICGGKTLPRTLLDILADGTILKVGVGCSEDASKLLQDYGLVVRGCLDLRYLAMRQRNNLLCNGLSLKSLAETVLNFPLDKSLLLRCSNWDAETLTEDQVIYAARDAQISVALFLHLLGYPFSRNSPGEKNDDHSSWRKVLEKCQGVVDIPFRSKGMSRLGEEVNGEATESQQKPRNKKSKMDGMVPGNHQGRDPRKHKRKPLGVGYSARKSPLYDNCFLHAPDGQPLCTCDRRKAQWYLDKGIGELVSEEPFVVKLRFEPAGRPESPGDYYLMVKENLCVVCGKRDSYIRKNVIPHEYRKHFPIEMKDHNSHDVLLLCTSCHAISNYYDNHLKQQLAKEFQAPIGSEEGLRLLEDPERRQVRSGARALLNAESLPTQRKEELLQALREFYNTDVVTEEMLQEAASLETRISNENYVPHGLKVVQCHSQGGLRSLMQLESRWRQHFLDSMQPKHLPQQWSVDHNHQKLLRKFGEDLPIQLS
# UniProt Q9UQ84: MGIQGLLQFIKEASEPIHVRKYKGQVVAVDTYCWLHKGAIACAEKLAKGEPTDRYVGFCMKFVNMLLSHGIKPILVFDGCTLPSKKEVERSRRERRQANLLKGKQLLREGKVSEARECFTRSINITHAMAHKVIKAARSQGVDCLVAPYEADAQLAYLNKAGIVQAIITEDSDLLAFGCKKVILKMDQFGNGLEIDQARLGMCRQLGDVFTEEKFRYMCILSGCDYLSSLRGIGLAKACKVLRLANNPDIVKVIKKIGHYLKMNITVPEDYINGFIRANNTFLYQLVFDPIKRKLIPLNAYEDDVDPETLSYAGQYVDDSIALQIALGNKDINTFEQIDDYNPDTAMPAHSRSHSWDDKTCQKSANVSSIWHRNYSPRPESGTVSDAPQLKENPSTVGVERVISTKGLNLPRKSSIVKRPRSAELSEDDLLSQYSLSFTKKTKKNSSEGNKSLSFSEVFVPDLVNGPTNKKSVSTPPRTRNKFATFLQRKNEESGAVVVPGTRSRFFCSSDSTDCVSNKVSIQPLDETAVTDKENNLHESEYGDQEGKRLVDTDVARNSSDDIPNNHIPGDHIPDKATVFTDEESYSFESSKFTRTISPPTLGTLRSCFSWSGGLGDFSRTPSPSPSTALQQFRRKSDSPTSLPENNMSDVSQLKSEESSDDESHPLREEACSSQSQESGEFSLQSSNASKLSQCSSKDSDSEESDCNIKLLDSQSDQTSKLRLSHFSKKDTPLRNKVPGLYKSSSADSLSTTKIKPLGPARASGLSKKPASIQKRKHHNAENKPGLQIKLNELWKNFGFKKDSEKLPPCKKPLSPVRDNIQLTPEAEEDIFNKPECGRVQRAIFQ
# UniProt Q96KR6: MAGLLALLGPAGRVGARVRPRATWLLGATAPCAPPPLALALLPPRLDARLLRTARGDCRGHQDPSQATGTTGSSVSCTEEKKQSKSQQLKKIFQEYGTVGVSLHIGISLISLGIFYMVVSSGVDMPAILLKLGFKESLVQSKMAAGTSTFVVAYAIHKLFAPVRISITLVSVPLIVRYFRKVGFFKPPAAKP
# UniProt Q9C073: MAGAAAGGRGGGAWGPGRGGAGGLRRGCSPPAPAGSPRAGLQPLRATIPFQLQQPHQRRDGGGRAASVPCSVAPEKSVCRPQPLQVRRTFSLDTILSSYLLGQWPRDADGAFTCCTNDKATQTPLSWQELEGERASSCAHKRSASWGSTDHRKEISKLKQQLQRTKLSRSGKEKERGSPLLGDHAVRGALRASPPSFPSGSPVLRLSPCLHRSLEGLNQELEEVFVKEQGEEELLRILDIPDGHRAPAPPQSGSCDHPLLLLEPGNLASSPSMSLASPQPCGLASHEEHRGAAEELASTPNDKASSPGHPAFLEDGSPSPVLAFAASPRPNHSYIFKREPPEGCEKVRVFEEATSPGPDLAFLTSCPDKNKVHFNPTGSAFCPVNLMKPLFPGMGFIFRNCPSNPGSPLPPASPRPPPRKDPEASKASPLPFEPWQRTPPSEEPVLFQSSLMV
# This is one part of the list.
# Compound: O=C(CCCCCCC(=O)Nc1ccccc1)NO [vorinostat]
# Assay: log2 fold change, soluble protein after heating vs DMSO (PISA); higher = thermal stabilisation; K562 lysate, 10 uM; active = over 0.2 and 3.5 SD of the protein, either way, in both replicates (recomputed)
# Summary of the method: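 K562 pellets were dounce-homogenised in PBS pH 7.4 with 1 mM MgCl2, and the crude extract at 1 mg/mL protein was treated with 10 μM compound for 30 min. Aliquots were heated for 3 min across 48°C-58°C, pooled, and brought to 0.5% NP-40 at 4°C; soluble protein was the supernatant after 21,000xg for 90 min. Soluble protein was quantified by TMTpro 16plex LC-MS/MS with channel sums equalised, and reported as log2 fold change in thermal stability against DMSO controls, with values from duplicates.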
row,Target,log2 fold change
1,EXOSC8 (UniProt Q96B26),inactive: 0.092
2,FAM32A (UniProt Q9Y421),inactive: 0.055
3,FAM76A isoform 3 (UniProt Q8TAV0),inactive: 0.124
4,FAM126A (UniProt Q9BYI3),inactive: -0.378
5,EXTL3 (UniProt O43909),inactive: 0.153
6,ETFA (UniProt P13804),inactive: 0.046
7,EYA3 (UniProt Q99504),inactive: 0.019
8,FAM193B (UniProt Q96PV7),inactive: -0.017
9,FAM20B (UniProt O75063),inactive: 0.101
10,FAM177A1 isoform 2 (UniProt Q8N128),inactive: -0.01
11,FAM192A (UniProt Q9GZU8),inactive: 0.096
12,F2RL3 (UniProt Q96RI0),inactive: 0.079
13,ERLIN2 (UniProt O94905),inactive: 0.032
14,FAM204A (UniProt Q9H8W3),inactive: -0.211
15,"FADS1, A0A0A0MR51",inactive: 0.093
16,EZH2 isoform 2 (UniProt Q15910),inactive: -0.171
17,"FAM193A, A0A1B0GVL4",inactive: -0.405
18,EXOC4 (UniProt Q96A65),active: -0.389
19,EXOSC3 (UniProt Q9NQT5),inactive: -0.191

# Reprinted from the entries so far for reference:
row,Target,log2 fold change
14,FAM204A (UniProt Q9H8W3),inactive: -0.211
15,"FADS1, A0A0A0MR51",inactive: 0.093
16,EZH2 isoform 2 (UniProt Q15910),inactive: -0.171

# (further entries)

row,Target,log2 fold change
1,FADD (UniProt Q13158),inactive: 0.09
2,FAHD2A (UniProt Q96GK7),inactive: 0.078
3,EXD2 (UniProt Q9NVH0),inactive: -0.351
4,ETV4 (UniProt P43268),inactive: -0.077
5,ETFRF1 (UniProt Q6IPR1),active: 0.24
6,EXO1 (UniProt Q9UQ84),inactive: -0.043
7,FAM83D (UniProt Q9H4H8),active: -0.243
8,EXOSC7 (UniProt Q15024),inactive: 0.158
9,FAM117B (UniProt Q6P1L5),inactive: -0.251
10,EXOC8 (UniProt Q8IYI6),inactive: -0.129
11,FAM122B isoform 3 (UniProt Q7Z309),inactive: 0.091
12,FAM185A (UniProt Q8N0U4),inactive: 0.17
13,FAM162A (UniProt Q96A26),inactive: 0.085
14,F11R (UniProt Q9Y624),inactive: 0.135
15,EXOC3 (UniProt O60645),active: -0.221
16,FAM210B (UniProt Q96KR6),inactive: 0.056
17,FAM117A (UniProt Q9C073),inactive: -0.154
18,FAM207A (UniProt Q9NSI2),inactive: 0.024
